Results published in US9067968B2 (The Regents of the University of Colorado, a body corporate, priority 2007, dated 2015).

Assay: general procedure: Fmoc solid-phase peptide synthesis; pre-loaded Fmoc-D-Cys-Wang resin, 0.5 mmol/g (all D-form peptide); DIC/HOBt
Conditions: whole synthesis

Q: Which “final purity (method not given)” value does the source give for “cyclic H-CLYHYC-OH (flanking Cys, cyclised; TJ Protein Modulator 1)” here?
A: The value was 95%.
